The results in this text go back to patent US6429304.

Sequences of proteins named here, by UniProt entry; tags and fusion partners are left off. A change or cut given only in a name is not applied to a line headed by its entry.
UniProt O61577: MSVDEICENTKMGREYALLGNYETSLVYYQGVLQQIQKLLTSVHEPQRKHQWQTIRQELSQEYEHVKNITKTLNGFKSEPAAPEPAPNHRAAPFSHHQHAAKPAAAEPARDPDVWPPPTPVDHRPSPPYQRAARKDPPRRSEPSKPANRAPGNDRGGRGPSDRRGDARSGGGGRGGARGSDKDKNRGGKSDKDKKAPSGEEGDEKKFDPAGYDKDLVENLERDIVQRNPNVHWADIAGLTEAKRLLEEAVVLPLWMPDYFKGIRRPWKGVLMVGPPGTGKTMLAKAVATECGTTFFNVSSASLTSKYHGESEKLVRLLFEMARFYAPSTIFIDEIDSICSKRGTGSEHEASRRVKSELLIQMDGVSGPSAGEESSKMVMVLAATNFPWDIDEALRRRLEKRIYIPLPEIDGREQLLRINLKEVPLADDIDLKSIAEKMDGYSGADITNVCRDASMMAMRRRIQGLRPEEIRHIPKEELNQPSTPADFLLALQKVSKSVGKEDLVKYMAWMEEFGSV

The target of this assay is in vitro translated S. purpuratus p60 katanin with 37 amino acid N-terminal S-Tag (Strongylocentrotus purpuratus) (UniProt O61577). Briefly: co-translation in rabbit reticulocyte lysate, co-immunoprecipitation with anti-p60 antibody.

No constants are given. Whether binding was seen depends on the method and setting. Binding seen in cells or lysates may run through a third protein. Some results given as binding are weak or reduced against the parent protein; the word gives no strength. Where a sequence is shown, tags or fusion partners need not be part of it.

B1: in vitro translated full-length S. purpuratus p80 katanin with 37 amino acid N-terminal S-Tag (protein, not shown: small tags and cut ends)
chain: MATKRAWKLQELVAHSSNVNCLALGPMSGRVMVTGGEDKKVNLWAVGKQNCIISLSGHTSPVDSVKFNSSEELVVAGSQSGTMKIYDLEPAKIVRTLTGHRNSIRCMDFHPFGEFVASGSTDTNVKLWDVRRKGCIYTYKGHSDQVNMIKFSPDGKWLVTASEDTTIKLWDLTMGKLFQEFKNHTGGVTGIEFHPNEFLLASGSSDRTVQFWDLETFQLVSSTSPGASAVRSISFHPDGSYLFCSSQDMLHAFGWEPIRCFDTFSVGWGKVADTVIASTQLIGASFNATNVSVYVADLSRMSTTGIAQEPQSQPSKTPSGGAEEVPSKPLTASGRKNFVRERPHTTSSKQRQPDVKSEPERQSPTQDEGVKDDDATDIKDPDSYAKIFSPKTRVDHSPERNAQPFPAPLDVPGAQEPEPFKHPPKPAAAAAVAPVSRAPAPSASDWQPAQANPAPNRVPAATKPVPAQEVAPSRKPDPISTIIPSDRNKPANLDMDAFLPPAHAQQAPRVNAPASRKQSDSERIEGLRKGHDSMCQVLSSRHRNLDVVRAIWTAGDAKTSVESVVNMKDQAILVDILNIMLLKKSLWNLDMCVVVLPRLKELLSSKYENYVHTSCACLKLILKNFTSLFNQNIKCPPSGIDITREERYNKCSKCYSYLIATRGYVEEKQHVSGKLGSSFRELHLLLDQLE
For B1, the binding result is given as “binds”.
